# From the supplement of paper PMC10849652
# The chains behind the UniProt entries cited, without tags or fusion partners. Where a name states a change or a piece, a line headed by the entry shows the natural chain unless it says otherwise.
# UniProt Q9UHY1: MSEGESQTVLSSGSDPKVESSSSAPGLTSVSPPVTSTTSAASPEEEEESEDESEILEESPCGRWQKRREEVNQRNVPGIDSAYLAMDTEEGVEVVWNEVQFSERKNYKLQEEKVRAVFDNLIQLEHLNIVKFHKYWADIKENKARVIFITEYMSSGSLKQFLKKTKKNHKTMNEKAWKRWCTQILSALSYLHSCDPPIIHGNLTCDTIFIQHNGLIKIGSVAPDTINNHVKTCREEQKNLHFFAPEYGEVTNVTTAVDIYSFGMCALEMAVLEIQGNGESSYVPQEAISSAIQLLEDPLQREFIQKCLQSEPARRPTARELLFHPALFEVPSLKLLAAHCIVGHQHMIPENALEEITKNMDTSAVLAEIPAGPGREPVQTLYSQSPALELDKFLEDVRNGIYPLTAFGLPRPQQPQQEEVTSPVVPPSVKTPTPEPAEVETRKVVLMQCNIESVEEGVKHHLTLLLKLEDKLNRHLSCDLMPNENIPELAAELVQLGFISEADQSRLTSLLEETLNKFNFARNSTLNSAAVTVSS
# UniProt Q12857, whole entry, looked up: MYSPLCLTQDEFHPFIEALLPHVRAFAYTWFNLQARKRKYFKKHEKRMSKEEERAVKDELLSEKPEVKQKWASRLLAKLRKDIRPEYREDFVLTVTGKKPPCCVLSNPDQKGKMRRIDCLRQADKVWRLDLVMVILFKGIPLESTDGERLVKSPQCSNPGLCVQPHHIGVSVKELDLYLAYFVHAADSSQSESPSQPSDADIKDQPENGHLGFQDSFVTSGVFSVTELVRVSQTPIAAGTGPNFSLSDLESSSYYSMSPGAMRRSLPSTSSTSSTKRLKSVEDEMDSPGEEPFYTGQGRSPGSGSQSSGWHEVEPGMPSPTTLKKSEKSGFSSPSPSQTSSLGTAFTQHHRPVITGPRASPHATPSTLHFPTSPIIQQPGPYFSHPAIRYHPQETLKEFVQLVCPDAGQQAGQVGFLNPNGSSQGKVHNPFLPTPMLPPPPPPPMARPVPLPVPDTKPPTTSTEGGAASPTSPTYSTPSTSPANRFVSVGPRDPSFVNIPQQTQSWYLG
# UniProt P35240: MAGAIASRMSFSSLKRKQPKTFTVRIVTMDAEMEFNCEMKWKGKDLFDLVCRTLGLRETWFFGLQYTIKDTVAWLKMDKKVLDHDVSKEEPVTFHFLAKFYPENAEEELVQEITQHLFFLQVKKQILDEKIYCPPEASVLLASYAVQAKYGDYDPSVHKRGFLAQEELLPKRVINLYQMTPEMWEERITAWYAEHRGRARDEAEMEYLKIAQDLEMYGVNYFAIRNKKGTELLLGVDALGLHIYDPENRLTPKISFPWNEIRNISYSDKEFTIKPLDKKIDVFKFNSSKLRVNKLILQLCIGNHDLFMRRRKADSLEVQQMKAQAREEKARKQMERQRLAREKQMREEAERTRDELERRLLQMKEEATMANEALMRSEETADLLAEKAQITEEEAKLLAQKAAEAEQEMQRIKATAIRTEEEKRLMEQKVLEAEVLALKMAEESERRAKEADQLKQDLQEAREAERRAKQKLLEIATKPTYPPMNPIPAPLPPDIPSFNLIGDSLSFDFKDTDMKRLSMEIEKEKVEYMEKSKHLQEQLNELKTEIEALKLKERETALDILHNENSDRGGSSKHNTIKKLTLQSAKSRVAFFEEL
# UniProt Q5JPE7: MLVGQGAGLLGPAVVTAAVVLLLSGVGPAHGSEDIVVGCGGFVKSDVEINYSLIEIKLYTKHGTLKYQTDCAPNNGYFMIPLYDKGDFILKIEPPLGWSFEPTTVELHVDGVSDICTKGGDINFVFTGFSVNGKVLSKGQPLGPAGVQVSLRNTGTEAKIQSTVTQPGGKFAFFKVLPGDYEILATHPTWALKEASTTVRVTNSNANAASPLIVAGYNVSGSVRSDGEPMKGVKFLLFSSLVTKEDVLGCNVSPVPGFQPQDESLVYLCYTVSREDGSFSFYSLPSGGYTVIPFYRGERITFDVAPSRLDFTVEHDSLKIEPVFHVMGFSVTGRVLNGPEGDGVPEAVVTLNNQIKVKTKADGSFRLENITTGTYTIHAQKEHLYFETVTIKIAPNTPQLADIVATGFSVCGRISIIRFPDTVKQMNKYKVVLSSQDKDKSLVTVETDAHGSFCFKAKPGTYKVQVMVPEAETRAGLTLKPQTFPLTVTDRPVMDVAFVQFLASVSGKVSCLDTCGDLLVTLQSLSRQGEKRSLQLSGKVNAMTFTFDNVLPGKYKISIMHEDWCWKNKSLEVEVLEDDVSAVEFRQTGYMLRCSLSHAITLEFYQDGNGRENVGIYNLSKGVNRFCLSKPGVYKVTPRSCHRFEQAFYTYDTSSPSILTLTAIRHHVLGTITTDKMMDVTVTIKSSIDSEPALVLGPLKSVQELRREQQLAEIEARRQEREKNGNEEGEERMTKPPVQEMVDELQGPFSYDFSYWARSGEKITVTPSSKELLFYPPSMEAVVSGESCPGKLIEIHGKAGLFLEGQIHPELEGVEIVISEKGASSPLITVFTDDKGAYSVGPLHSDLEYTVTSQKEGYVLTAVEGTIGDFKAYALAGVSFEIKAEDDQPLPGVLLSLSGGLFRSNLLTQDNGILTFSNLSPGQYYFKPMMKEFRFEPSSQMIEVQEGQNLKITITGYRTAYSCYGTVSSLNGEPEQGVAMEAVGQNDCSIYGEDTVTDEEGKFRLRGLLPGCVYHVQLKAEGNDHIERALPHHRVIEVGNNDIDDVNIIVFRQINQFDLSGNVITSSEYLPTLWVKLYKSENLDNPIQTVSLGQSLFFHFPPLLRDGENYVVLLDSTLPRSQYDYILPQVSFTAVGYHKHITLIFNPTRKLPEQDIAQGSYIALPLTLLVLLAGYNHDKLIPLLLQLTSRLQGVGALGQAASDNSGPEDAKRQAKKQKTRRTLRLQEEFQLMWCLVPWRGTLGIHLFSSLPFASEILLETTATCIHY
# UniProt O75607: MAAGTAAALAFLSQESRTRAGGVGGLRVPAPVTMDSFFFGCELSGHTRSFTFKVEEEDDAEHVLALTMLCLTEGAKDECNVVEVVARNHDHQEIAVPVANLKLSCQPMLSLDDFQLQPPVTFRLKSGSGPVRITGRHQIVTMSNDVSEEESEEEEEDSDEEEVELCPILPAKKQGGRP
# UniProt P15531, whole entry, looked up: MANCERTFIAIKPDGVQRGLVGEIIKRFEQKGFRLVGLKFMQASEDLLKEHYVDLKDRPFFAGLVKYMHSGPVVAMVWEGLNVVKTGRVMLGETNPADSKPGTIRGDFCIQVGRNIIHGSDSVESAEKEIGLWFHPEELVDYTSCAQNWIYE
# UniProt Q9NQR4: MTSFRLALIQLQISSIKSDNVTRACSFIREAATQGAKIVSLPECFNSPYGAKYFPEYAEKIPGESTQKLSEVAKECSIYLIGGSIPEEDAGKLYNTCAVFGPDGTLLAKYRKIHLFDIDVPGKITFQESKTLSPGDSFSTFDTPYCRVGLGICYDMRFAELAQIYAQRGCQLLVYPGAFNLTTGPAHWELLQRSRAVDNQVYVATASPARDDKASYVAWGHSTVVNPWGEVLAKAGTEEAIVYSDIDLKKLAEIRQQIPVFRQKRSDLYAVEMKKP
# UniProt P10588: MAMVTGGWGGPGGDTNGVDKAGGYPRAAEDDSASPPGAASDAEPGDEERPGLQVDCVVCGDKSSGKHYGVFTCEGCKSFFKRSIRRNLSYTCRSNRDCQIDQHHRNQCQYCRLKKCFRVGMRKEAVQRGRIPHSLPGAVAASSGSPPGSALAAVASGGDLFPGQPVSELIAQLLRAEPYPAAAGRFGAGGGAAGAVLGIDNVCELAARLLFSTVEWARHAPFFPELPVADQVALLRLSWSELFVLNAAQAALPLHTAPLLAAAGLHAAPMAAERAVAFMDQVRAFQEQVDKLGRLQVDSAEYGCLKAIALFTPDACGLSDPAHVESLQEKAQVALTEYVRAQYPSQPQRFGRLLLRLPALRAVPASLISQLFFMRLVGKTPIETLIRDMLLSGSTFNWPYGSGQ
# UniProt Q5JS37: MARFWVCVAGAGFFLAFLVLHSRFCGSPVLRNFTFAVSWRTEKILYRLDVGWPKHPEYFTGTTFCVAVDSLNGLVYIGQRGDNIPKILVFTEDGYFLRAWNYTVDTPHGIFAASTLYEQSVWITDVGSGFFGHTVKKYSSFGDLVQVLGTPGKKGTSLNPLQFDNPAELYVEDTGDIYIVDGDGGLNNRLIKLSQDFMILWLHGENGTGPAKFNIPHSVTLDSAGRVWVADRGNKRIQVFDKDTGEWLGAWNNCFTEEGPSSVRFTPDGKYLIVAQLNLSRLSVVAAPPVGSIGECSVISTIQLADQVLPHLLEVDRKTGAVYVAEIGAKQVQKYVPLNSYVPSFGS
# UniProt P23511, whole entry, looked up: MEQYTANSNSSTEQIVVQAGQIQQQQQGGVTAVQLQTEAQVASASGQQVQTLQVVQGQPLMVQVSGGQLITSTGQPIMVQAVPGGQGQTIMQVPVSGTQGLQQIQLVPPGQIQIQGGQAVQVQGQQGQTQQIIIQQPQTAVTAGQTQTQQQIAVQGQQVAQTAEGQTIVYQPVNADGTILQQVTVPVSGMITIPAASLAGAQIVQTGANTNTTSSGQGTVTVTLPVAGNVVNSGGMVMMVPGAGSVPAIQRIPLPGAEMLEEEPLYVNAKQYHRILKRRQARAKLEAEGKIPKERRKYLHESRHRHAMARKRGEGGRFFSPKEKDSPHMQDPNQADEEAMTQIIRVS
# UniProt Q96IY1: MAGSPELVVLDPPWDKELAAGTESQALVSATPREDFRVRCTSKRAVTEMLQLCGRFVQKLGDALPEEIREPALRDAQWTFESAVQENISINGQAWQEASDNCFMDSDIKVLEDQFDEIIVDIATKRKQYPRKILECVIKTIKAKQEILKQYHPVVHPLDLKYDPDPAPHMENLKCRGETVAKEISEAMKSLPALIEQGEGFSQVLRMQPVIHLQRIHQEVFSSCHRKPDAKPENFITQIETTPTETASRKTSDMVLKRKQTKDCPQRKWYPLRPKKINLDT
# UniProt P55786: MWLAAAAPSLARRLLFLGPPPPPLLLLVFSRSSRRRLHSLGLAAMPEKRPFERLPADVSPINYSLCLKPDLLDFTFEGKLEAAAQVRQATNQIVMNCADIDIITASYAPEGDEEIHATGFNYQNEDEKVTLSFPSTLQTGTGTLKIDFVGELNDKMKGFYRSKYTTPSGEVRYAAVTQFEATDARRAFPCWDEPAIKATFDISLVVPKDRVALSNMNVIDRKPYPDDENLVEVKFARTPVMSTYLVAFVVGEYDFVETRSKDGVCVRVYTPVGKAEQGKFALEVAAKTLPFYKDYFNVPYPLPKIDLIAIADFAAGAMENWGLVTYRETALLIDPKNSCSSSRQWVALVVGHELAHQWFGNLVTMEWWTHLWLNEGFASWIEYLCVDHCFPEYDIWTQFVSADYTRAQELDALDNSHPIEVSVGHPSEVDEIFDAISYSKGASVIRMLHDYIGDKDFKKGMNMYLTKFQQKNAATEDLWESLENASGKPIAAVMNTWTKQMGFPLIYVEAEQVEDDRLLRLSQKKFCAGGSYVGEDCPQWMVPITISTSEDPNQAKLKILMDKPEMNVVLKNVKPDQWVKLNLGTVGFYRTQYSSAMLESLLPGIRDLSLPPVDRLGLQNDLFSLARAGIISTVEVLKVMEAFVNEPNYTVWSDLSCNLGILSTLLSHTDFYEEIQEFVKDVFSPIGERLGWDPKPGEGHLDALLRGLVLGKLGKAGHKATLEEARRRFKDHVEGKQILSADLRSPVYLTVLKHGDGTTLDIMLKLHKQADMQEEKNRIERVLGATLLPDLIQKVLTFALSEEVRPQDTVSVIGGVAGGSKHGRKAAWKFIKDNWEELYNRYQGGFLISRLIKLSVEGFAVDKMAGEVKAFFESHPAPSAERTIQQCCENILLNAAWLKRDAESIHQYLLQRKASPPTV
# UniProt Q96TA1: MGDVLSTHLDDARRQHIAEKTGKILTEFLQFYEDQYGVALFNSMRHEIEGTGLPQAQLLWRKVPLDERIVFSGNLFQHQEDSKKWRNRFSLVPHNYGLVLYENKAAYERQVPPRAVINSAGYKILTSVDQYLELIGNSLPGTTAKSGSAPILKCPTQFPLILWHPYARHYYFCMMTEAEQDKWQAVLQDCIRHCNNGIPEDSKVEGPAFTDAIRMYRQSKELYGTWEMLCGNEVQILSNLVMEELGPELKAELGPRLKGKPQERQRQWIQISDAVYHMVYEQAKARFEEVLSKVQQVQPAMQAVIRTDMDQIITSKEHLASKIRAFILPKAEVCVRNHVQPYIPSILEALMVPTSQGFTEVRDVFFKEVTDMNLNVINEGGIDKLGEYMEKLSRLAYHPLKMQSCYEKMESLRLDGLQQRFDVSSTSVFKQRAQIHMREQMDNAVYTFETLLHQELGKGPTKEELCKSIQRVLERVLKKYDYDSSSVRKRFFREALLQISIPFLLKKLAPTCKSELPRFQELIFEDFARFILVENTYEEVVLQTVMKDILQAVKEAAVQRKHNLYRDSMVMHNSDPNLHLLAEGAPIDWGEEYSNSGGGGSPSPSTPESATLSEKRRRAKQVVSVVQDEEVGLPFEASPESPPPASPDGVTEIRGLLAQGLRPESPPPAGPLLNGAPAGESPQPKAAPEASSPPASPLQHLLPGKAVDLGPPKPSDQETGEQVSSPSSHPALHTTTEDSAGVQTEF
# Some of the results follow.
# Key:
# Test in all cases: log2 fold change, soluble protein after heating vs DMSO (PISA); higher = thermal stabilisation; K562 cells, 10 uM, 30 min; active = over 0.2 and 3.5 SD of the protein, either way, in both replicates (recomputed)
# bafetinib = compound: Cc1ccc(NC(=O)c2ccc(CN3CC[C@H](N(C)C)C3)c(C(F)(F)F)c2)cc1Nc1nccc(-c2cncnc2)n1 [bafetinib]
# Procedure, shortened: (§1)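 Quantification of soluble protein used TMTpro 16plex LC-MS/MS, with channel sums equalised. Samples were the supernatant after 21,000xg for 90 min of pooled aliquots from K562 cells (2×10^6 cells/mL) treated with 10 μM compound for 30 min, heated for 3 min over 48°C-58°C, and extracted in PBS with 0.5% NP-40 at 4°C. Values, from duplicates, describe thermal stability against control samples on a log2 fold-change scale.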
# [1] = compound: Cc1cccc(CC(=O)N2CCc3c2ccc(-c2cn(C)c4ncnc(N)c24)c3F)n1
# Procedure, shortened: as §1
# nilotinib = compound: Cc1cn(-c2cc(NC(=O)c3ccc(C)c(Nc4nccc(-c5cccnc5)n4)c3)cc(C(F)(F)F)c2)cn1 [nilotinib]
# Procedure, shortened: as §1
# [2] = compound: Cc1nc(Nc2n[nH]c3c2CN(C(=O)N[C@H](CN(C)C)c2ccccc2)C3(C)C)c2sccc2n1
# Procedure, shortened: as §1
# dasatinib = compound: Cc1nc(Nc2ncc(C(=O)Nc3c(C)cccc3Cl)s2)cc(N2CCN(CCO)CC2)n1 [dasatinib]
# Procedure, shortened: as §1
# [3] = compound: Cc1ncc(-c2ccnc(Nc3ccc(S(C)(=O)=O)cc3)n2)n1C(C)C
# Procedure, shortened: as §1
# [4] = compound: Cn1cc(-c2ccc3c(c2)CCN3C(=O)Cc2cccc(C(F)(F)F)c2)c2c(N)ncnc21
# Procedure, shortened: as §1
# [5] = compound: Cn1cc(-c2ccc3nnc(C(F)(F)c4ccc5ncccc5c4)n3n2)cn1
# Procedure, shortened: as §1
# tipifarnib = compound: Cn1cncc1[C@@](N)(c1ccc(Cl)cc1)c1ccc2c(c1)c(-c1cccc(Cl)c1)cc(=O)n2C [tipifarnib]
# Procedure, shortened: as §1
# mubritinib = compound: FC(F)(F)c1ccc(/C=C/c2nc(COc3ccc(CCCCn4ccnn4)cc3)co2)cc1 [mubritinib]
# Procedure, shortened: as §1
Target,log2 fold change (bafetinib),log2 fold change [1],log2 fold change (nilotinib),log2 fold change [2],log2 fold change (dasatinib),log2 fold change [3],log2 fold change [4],log2 fold change [5],log2 fold change (tipifarnib),log2 fold change (mubritinib)
NHEJ1 (UniProt Q9H9Q4),inactive: 0.055,inactive: 0.156,inactive: 0.007,inactive: 0.014,inactive: -0.152,inactive: 0.015,inactive: 0.08,inactive: 0,inactive: -0.065,inactive: 0.1
NOLC1 isoform 2 (UniProt Q14978),inactive: 0.105,inactive: -0.031,inactive: 0.1,inactive: -0.1,inactive: 0.145,active: -0.376,inactive: -0.013,inactive: 0.02,inactive: 0.027,inactive: -0.031
NRBP1 (UniProt Q9UHY1),inactive: -0.043,inactive: 0.016,inactive: -0.002,inactive: -0.029,inactive: 0.07,inactive: 0.039,inactive: -0.057,inactive: 0.059,inactive: 0.017,inactive: 0.056
NFIA isoform 4 (UniProt Q12857),inactive: -0.017,inactive: -0.078,inactive: 0.022,inactive: 0.04,inactive: 0.084,inactive: -0.078,inactive: -0.086,inactive: 0.074,inactive: 0.046,inactive: -0.023
NF2 (UniProt P35240),inactive: -0.06,inactive: 0.058,inactive: -0.054,inactive: -0.065,inactive: -0.036,inactive: -0.08,inactive: 0.019,inactive: -0.005,inactive: 0.033,inactive: 0
NFYB (UniProt P25208),inactive: -0.086,inactive: -0.006,inactive: 0.074,inactive: -0.067,inactive: 0.124,inactive: 0.034,inactive: -0.012,inactive: -0.06,inactive: -0.019,inactive: 0.127
NOP58 (UniProt Q9Y2X3),inactive: 0.146,inactive: -0.154,inactive: 0.03,inactive: -0.194,inactive: 0.266,inactive: -0.142,inactive: -0.194,inactive: -0.093,inactive: 0.067,inactive: -0.071
NEK9 (UniProt Q8TD19),inactive: -0.067,inactive: -0.004,inactive: -0.029,inactive: 0.002,inactive: -0.079,inactive: 0,inactive: 0.013,inactive: -0.009,inactive: 0.014,inactive: -0.008
NOMO2 (UniProt Q5JPE7),inactive: -0.009,inactive: -0.01,inactive: -0.009,inactive: 0.032,inactive: -0.018,inactive: -0.037,inactive: -0.019,inactive: 0.017,inactive: -0.016,inactive: -0.024
NENF (UniProt Q9UMX5),inactive: -0.053,inactive: -0.089,inactive: -0.015,inactive: 0.028,inactive: 0.061,inactive: -0.015,inactive: 0.013,inactive: 0.054,inactive: 0.015,inactive: -0.005
NLRP2 (UniProt Q9NX02),inactive: 0.017,inactive: -0.038,inactive: -0.096,inactive: -0.06,inactive: -0.174,inactive: 0.009,inactive: -0.064,inactive: -0.03,inactive: -0.157,inactive: -0.076
NIPSNAP1 (UniProt Q9BPW8),inactive: 0.005,inactive: -0.047,inactive: 0.13,inactive: -0.041,inactive: 0.027,inactive: -0.014,inactive: 0.093,inactive: 0.028,inactive: -0.083,inactive: 0.056
NPM3 (UniProt O75607),inactive: 0.017,inactive: -0.027,inactive: -0.045,inactive: 0.062,inactive: 0.101,inactive: -0.121,inactive: 0.043,inactive: -0.028,inactive: 0.071,inactive: -0.035
NOL11 (UniProt Q9H8H0),inactive: -0.042,inactive: 0.017,inactive: -0.016,inactive: 0.017,inactive: 0.017,inactive: 0.11,inactive: -0.006,inactive: 0.001,inactive: 0.036,inactive: -0.012
NME1 isoform 2 (UniProt P15531),inactive: 0.011,inactive: -0.175,inactive: -0.115,inactive: 0.182,inactive: -0.286,inactive: -0.003,inactive: 0.088,inactive: -0.013,inactive: 0.06,inactive: -0.103
NFKBIB (UniProt Q15653),inactive: -0.059,inactive: -0.001,inactive: 0.044,inactive: -0.236,inactive: -0.061,inactive: -0.074,inactive: 0.013,inactive: 0.009,inactive: 0.014,inactive: 0.049
NMT1 (UniProt P30419),inactive: 0.064,inactive: -0.026,inactive: 0.049,inactive: 0.06,inactive: -0.012,inactive: -0.003,inactive: 0.026,inactive: -0.001,inactive: -0.026,inactive: 0.076
NMRAL1 (UniProt Q9HBL8),active: 0.806,inactive: -0.026,active: 1.29,inactive: 0.024,inactive: -0.071,inactive: -0.018,inactive: 0.031,active: 0.962,inactive: -0.035,inactive: -0.145
NOP53 (UniProt Q9NZM5),inactive: 0.189,inactive: 0.059,inactive: 0.039,inactive: 0.217,inactive: 0.147,inactive: 0.027,inactive: -0.339,inactive: -0.178,inactive: 0.161,inactive: -0.202
NHLRC2 (UniProt Q8NBF2),inactive: -0.141,inactive: 0.002,inactive: -0.05,inactive: -0.004,inactive: -0.052,inactive: -0.001,inactive: 0.042,inactive: 0.006,inactive: -0.024,inactive: 0.058
NIT2 (UniProt Q9NQR4),inactive: -0.061,inactive: -0.02,inactive: -0.029,inactive: 0.011,inactive: 0.019,inactive: 0.011,inactive: 0.026,inactive: 0.063,inactive: -0.024,inactive: 0.006
NFATC2 (UniProt Q13469),inactive: 0.006,inactive: 0.066,inactive: -0.135,inactive: -0.341,inactive: -0.213,active: -0.445,inactive: -0.025,inactive: -0.075,inactive: -0.029,inactive: -0.124
NR2F6 (UniProt P10588),inactive: 0.027,inactive: -0.029,inactive: -0.103,inactive: -0.054,inactive: -0.036,inactive: 0.03,inactive: 0.001,inactive: -0.159,inactive: 0.084,inactive: 0.062
NQO2 (UniProt P16083),inactive: -0.073,inactive: -0.024,inactive: 0.045,inactive: 0.002,inactive: -0.007,inactive: -0.014,inactive: 0.072,inactive: 0.042,inactive: -0.031,inactive: 0.027
NHLRC3 (UniProt Q5JS37),inactive: 0.031,inactive: 0.01,inactive: -0.049,inactive: -0.016,inactive: -0.03,inactive: -0.052,inactive: -0.143,inactive: -0.003,inactive: 0.043,inactive: 0.127
NFYA (UniProt P23511),inactive: 0.08,inactive: -0.025,inactive: -0.012,inactive: 0.033,inactive: 0.047,inactive: -0.064,inactive: -0.054,inactive: -0.081,inactive: -0.012,inactive: -0.017
NMNAT1 (UniProt Q9HAN9),inactive: 0.052,inactive: -0.034,inactive: -0.073,inactive: 0.023,inactive: 0.159,inactive: -0.047,inactive: -0.143,inactive: -0.21,inactive: 0.118,inactive: -0.047
NSL1 (UniProt Q96IY1),inactive: 0.048,inactive: 0.078,inactive: -0.035,inactive: -0.175,inactive: -0.111,inactive: 0.006,inactive: 0.084,inactive: -0.077,inactive: -0.015,inactive: 0.015
NPEPPS (UniProt P55786),inactive: 0.031,inactive: 0.011,inactive: 0.002,inactive: 0.121,inactive: -0.083,inactive: -0.063,inactive: 0.085,inactive: 0.02,inactive: -0.032,inactive: 0.102
NIBAN2 (UniProt Q96TA1),inactive: -0.004,inactive: -0.001,inactive: 0,inactive: -0.003,inactive: -0.048,inactive: -0.02,inactive: 0.022,inactive: 0.018,inactive: -0.03,inactive: 0.065

# Reformatted with bars between the fields: entries from further up.
Target | log2 fold change (bafetinib) | log2 fold change [1] | log2 fold change (nilotinib) | log2 fold change [2] | log2 fold change (dasatinib) | log2 fold change [3] | log2 fold change [4] | log2 fold change [5] | log2 fold change (tipifarnib) | log2 fold change (mubritinib)
NPM3 (UniProt O75607) | inactive: 0.017 | inactive: -0.027 | inactive: -0.045 | inactive: 0.062 | inactive: 0.101 | inactive: -0.121 | inactive: 0.043 | inactive: -0.028 | inactive: 0.071 | inactive: -0.035
NIT2 (UniProt Q9NQR4) | inactive: -0.061 | inactive: -0.02 | inactive: -0.029 | inactive: 0.011 | inactive: 0.019 | inactive: 0.011 | inactive: 0.026 | inactive: 0.063 | inactive: -0.024 | inactive: 0.006
